Screening data, single-dose tests

Protein sequences, listed by entry. Tags and fused reporters are not part of them. Residues count along the entry.
UniProt Q4DA54, 1-478: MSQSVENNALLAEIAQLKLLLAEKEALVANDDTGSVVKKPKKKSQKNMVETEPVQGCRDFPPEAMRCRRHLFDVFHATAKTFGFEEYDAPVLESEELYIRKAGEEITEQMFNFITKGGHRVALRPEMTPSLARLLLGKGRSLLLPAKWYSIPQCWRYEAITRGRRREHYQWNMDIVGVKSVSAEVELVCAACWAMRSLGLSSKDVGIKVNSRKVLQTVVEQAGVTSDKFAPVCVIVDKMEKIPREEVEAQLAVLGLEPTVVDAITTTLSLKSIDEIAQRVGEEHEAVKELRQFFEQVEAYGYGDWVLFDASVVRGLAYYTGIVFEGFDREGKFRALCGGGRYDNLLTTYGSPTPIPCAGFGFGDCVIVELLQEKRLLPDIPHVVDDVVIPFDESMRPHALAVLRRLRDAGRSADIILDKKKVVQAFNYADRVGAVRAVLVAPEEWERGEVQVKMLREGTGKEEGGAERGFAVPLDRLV
UniProt P9WNZ1, whole entry: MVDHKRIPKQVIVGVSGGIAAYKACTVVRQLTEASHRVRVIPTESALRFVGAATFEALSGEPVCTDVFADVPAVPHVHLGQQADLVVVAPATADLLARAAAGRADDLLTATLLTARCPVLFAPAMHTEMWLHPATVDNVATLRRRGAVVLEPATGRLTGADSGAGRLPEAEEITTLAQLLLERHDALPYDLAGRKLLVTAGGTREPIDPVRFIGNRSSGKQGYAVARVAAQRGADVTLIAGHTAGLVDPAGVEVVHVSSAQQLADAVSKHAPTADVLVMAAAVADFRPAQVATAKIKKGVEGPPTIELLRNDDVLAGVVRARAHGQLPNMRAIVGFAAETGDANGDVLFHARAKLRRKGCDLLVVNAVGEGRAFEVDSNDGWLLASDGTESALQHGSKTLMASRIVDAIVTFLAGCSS
UniProt A4I591, 1-473: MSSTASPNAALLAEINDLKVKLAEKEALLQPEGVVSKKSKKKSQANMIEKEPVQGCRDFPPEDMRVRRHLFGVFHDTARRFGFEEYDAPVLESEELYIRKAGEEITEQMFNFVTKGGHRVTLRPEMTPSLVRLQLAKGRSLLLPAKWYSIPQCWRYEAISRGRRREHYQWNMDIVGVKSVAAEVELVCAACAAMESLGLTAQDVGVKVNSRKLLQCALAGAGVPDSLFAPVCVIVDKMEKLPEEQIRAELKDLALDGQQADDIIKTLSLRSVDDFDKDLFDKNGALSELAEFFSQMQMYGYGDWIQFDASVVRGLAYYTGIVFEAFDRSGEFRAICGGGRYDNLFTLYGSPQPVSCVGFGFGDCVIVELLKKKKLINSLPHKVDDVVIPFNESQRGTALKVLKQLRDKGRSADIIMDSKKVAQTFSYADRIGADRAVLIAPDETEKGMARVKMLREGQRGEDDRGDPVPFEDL

Source: ChEMBL document CHEMBL3988442, “University of Dundee, Small-Polar-MMV Screening Library” (2021).

TcHisRS: 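Histidine-tRNA ligase, Trypanosoma cruzi CL Brener (UniProt Q4DA54). Enzyme assay of histidyl-tRNA synthetase; the read-out is not stated. Compounds at 30 µM. Higher reads as stronger inhibition (inferred: compounds with an IC50 in retests scored well above the rest). Of about 69,000 compounds tested this way, about 31 (0.045%) reached 50% or more in at least one test.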
Leishmania in macrophages: 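Cell assay of Leishmania donovani living inside macrophages; the read-out is not stated. Tested at 30 µM. Direction is inferred from retests: higher values go with stronger inhibition. About 69,000 compounds were tested under these conditions; 1.5% (about 1,000) showed 50% or more at least once.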
Toxoplasma: 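Assay of Toxoplasma gondii numbers, read through their beta-galactosidase reporter with a colour substrate. Tested at 10 µM. The record gives no direction; the compounds picked for IC50 retests had high values, so higher reads as fewer parasites. Of about 67,000 compounds tested this way, about 260 (0.38%) reached 50% or more in at least one test.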
CoaBC: 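Enzyme assay of CoaBC with a phosphate dye (Biomol Green) read at 650 nm. Target: Coenzyme A biosynthesis protein CoaBC, Mycobacterium tuberculosis (UniProt P9WNZ1). Concentration: 30 µM. Higher reads as stronger inhibition, judged from the few compounds that gave an IC50. Most strong results did not repeat in a second test. Of about 67,000 compounds tested this way, about 40 (0.06%) reached 50% or more in at least one test.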
LiHisRS: 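Enzyme assay of histidyl-tRNA synthetase; the read-out is not stated. Target: Histidine-tRNA ligase, Leishmania infantum (UniProt A4I591). Compounds at 30 µM. Direction is inferred from retests: higher values go with stronger inhibition. The assay is labelled LdHisRS but filed under L. infantum. Of about 69,000 compounds tested this way, about 410 (0.6%) reached 50% or more in at least one test.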

Values are the deposited “Percent Effect”, in %.
How 0% and 100% were set is not recorded. Most values in the screen are low, and negative values occur.
Compounds were drawn at random from those tested, without regard to their results.
Two or more numbers in one place are separate tests of the same structure; such repeats can differ widely.
A dash means the value is not listed here; it may have been measured.

| Compound | TcHisRS | Leishmania in macrophages | Toxoplasma | CoaBC | LiHisRS |
|---|---|---|---|---|---|
| `CC(=O)N(Cc1noc(C)n1)C1CCN(CC2(O)CCCCC2)C1` (centres unmarked) | 6.098 | -0.9964 | -6.029 | 2.658 | 6.024 |
| `Cc1cccc(C2(CNC(=O)CCNS(C)(=O)=O)CCCC2)c1` | 3.008 | 20.6 | - | 0.7712 | -3.371 |
| `CNC(=O)CS(=O)(=O)Cc1coc(-c2ccc(F)cc2)n1` | -1.667 | 32.91 | -4.732 | 2.772 | 21.15 |
| `CCCC(NC(=O)c1cc(C)ccc1C)c1nnn[nH]1` (centres unmarked) | -0.4149 | 3.439 | -3.414 | 1.786 | 10.68 |
| `COCCNC(=O)Nc1ccc(-n2cncn2)c(F)c1` | 1.901 | -13.05 | -8.469 | -2.128 | 12 |
| `COC(C)(CNS(=O)(=O)c1cn(C)cn1)c1ccccc1F` (centres unmarked) | 0 | -4.656 | 13.09 | -2.043 | 7.792 |
| `[H][C@@]12CCN(Cc3nccs3)C[C@]1([H])[C@@H](CN(C)Cc1ccco1)OC2` | - | 34.5 | 0.4274 | - | - |
| `Cc1nccn1CCN(C)C(=O)c1cn(CC2CCCCC2)nn1` | 3.483 | 6.856 | -10.6 | -2.384 | 8.434 |
| `O=C(NCC(O)CN1CCc2ccccc2C1)Nc1cccnc1` (centres unmarked) | -0.3774 | 9.413 | 0.4135 | 1.795 | 10.67 |
| `COc1ccc(C(=O)C2CCCN(c3nccc(N)n3)C2)c(C)c1` (centres unmarked) | 9.091 | 44.3 | 30.91 | 3.069 | 21.31 |
| `[H][C@@]12CCCO[C@]1([H])[C@H](Oc1ccccn1)CN2C(=O)CN(C)C` | - | -5.202 & 18.47 | -3.95 | - | - |
| `Cc1nnc(NCc2cccnc2OCC(F)(F)F)c(C#N)c1C` | 18.37 | 19.63 | 14.23 | 11.58 | 20.18 |
| `Cc1ccc(C)c(OCc2cc(C(=O)N(C)CC(O)CO)no2)c1` (centres unmarked) | 0 | 31.54 | 4.026 | -3.599 | 1.042 |
| `Cc1nn(C)c(C)c1Cc1nc(N(C)C)no1` | -1.031 | 15.39 | 13.62 | -0.4717 | 16.48 |
| `[H][C@@]12CO[C@@H](CNS(C)(=O)=O)[C@]1([H])CCN(C(=O)c1ccc[nH]1)C2` | - | -21.5 | 2.564 | - | - |
| `COCCNC(=O)CCNC(=O)c1ccc(N2CCC(C)=N2)cc1` | 2.532 | 7.726 | 4.334 | 4.808 | 16.67 |
| `CC(NC1(CNC(=O)C(C)(C)C#N)CCOCC1)c1ccccc1` (centres unmarked) | 0.8475 | 0.5508 | 0.6911 | -8.811 | -1.887 |
| `CN1CCN(c2ncc(CNCCCc3cccc(F)c3)cn2)CC1` | -7.182 | 20.79 | -0.459 | 0.6369 | -3.109 |
| `CCc1cccc(N2CCC(NC(=O)C3CCOCC3)CC2)c1` | 6.197 | 8.469 | 8.66 | -2.417 | 7.826 |
| `CC(C)C(C(=O)N1CCCN(c2cccnn2)CC1)n1cncn1` (centres unmarked) | 2.326 | 2.277 | -26.84 | 4.605 | 7.143 |
| `COc1ccnc(NC(=O)c2cnccn2)c1` | 4.516 | -18.55 | 0 | 2.174 | 9.091 |
| `c1ncn(CC2CCCCN2Cc2noc(C3CC3)n2)n1` (centres unmarked) | 1.141 | 15.92 | 0.5646 | -2.128 | 24.8 |
| `CCCS(=O)(=O)CCN1CCN(c2cc(F)ccc2F)CC1` | 5.419 | -6.33 | 6.261 | 2.532 | 1.299 |
| `CC(NC(=O)N(C)Cc1cccc(OC(F)F)c1)c1nncn1C` (centres unmarked) | 1.058 | 12.59 | 7.512 | 2.17 | -6.061 |
| `CN(C)C(CNS(=O)(=O)c1ccc(F)cc1F)c1cccn1C` (centres unmarked) | 6.612 | 16.54 | 2.518 | -7.463 | 21.15 |
| `Clc1ccc(C2NCCc3cc4c(cc32)OCCO4)cc1` (centres unmarked) | 5.78 | 26.77 | 37.13 | -4.049 | 0 |
| `CN(C)C(=O)c1cccc(NC(=O)CN2CCCCC2C2OCCO2)c1` (centres unmarked) | 1.724 | 25.21 | -15.59 | 7.143 | -40.18 |
| `CN(C)CC1CN(Cc2ccc(F)cc2)Cc2nccn2C1` (centres unmarked) | 17.65 | - | - | -37.53 | 22.94 |
| `O=C(NCc1cnn2cccnc12)c1cccc(CC2CCNCC2)c1` | 85.45 | 18.25 | -33.32 | 10.46 | 60 |
| `Cc1cc(C(C)(O)CNC(=O)CCn2ccnc2C(C)C)c(C)o1` (centres unmarked) | 4.972 | -10.92 | 8.017 | 0 | 9.375 |
| `O=C(O)C(F)(F)F.[H][C@@]12CCN(S(=O)(=O)c3cccs3)C[C@]1([H])[C@@H](CN(C)C)OC2` | - | -11.37 | -17.38 | - | - |
| `Cn1nnc2c1CCN(Cc1nccs1)C2COCc1ccccc1` (centres unmarked) | 7.104 | - | - | 6.477 | 21.17 |
| `CC1=C(C(=O)N2CCCC(Cn3cc(CO)nn3)C2)OCCO1` (centres unmarked) | -0.8772 | -4.102 | 7.692 | 3.822 | 8.065 |
| `[H][C@@]12CCCO[C@]1([H])[C@@H](NC(=O)c1nccn1C)CN2Cc1ccc(C)o1` | - | 10.13 | 21.81 | - | - |
| `O=C(O)C(F)(F)F.[H][C@]12CCN(Cc3nccs3)C[C@@]1([H])OCCN(C(=O)c1ccco1)C2` | - | 43.58 | -11.53 | - | - |
| `Cc1ccc(N2CCO[C@H]3CN(Cc4cnn(C)c4)C[C@H]32)nn1` | 3.867 | - | - | 5.398 | 9.023 |
| `CCn1cnc(NC(=O)N2CCC(c3ccc(F)cc3)C2)n1` (centres unmarked) | 2.463 | 15.49 | -0.3567 | 4.194 | 11.84 |
| `CNC(=O)[C@H]1C[C@@H]2CN(Cc3cccnc3OC)C[C@@H]2N1C(C)C` | 5.376 | - | - | 1.057 | 21.05 |
| `Cc1ccsc1CNC(=O)NC(C)c1ccc2c(c1)CCC(=O)N2` (centres unmarked) | 6.286 | 5.276 | 8.412 | 1.195 | 9.615 |
| `CC(C)c1nc(-c2cc(C(=O)O)c3ccccn23)cs1` | 1.604 | -0.8279 | -9.543 | 14.58 | 24.79 |
| `Cc1cc(C(=O)N2CC[C@@H](N(C)C)[C@@H]2Cc2ccccc2)no1.O=C(O)C(F)(F)F` | - | 7.013 | -1.886 | - | - |
| `Cc1nccn1[C@@H]1CC[C@@H](N(C)S(=O)(=O)c2ccc(F)cc2)[C@H]1O` | 2.825 | 39.75 | 1.85 | 15.5 | 9.79 |
| `CNC(=O)COc1nc(C(C)(C)C)no1` | 9.852 | 35.56 | 7.08 | -2.564 | 9.589 |
| `Cn1cnc2c1CCN(Cc1csc(-c3ccccc3)n1)C2` | 5.572 | 0.3476 | 2.113 | -4.474 | 15.74 |
| `CC(C)N(C)Cc1nnc2n1CCCN(C(=O)c1ccco1)C2` | 2.174 | 7.248 | 0.4435 | 3.422 | 20.39 |
| `COCCN(Cc1coc(-c2cccc(Cl)c2)n1)C1CC1` | 8.247 | -0.3215 | -36.08 | -5.495 | 14.29 |
| `O=C1NC2(CCN(CC(=O)N3CCOCC3)CC2)Nc2ccc(Br)cc21` | -0.7576 | 27.91 | 9.862 | -4.205 | 8.696 |
| `CC(C)N1CC[C@@H]2[C@H](COCC3CC3)CN(C)C(=O)[C@@H]2CC1` | -3.448 | - | - | -5.533 | 24 |
| `CC(=O)N1CCCN(C(=O)CCc2c(C)nc3ccnn3c2C)CC1` | 3.468 | 20.02 | 8.273 | 2.999 | 9.649 |

For reference, 4 entries once more:

{"compound": "CCCC(NC(=O)c1cc(C)ccc1C)c1nnn[nH]1", "stereo": "centres unmarked", "TcHisRS": -0.4149, "Leishmania in macrophages": 3.439, "Toxoplasma": -3.414, "CoaBC": 1.786, "LiHisRS": 10.68}
{"compound": "CN(C)C(CNS(=O)(=O)c1ccc(F)cc1F)c1cccn1C", "stereo": "centres unmarked", "TcHisRS": 6.612, "Leishmania in macrophages": 16.54, "Toxoplasma": 2.518, "CoaBC": -7.463, "LiHisRS": 21.15}
{"compound": "CNC(=O)[C@H]1C[C@@H]2CN(Cc3cccnc3OC)C[C@@H]2N1C(C)C", "TcHisRS": 5.376, "CoaBC": 1.057, "LiHisRS": 21.05}
{"compound": "CC(=O)N1CCCN(C(=O)CCc2c(C)nc3ccnn3c2C)CC1", "TcHisRS": 3.468, "Leishmania in macrophages": 20.02, "Toxoplasma": 8.273, "CoaBC": 2.999, "LiHisRS": 9.649}